Experiment [1] deals with phosphorylated mediator complex subunit 1 (MED1, phospho T1457), endogenous in clinical prostate specimens (human (endogenous in clinical prostate tumor specimens)), Q15648. In words: proximity ligation; Duolink In Situ Detection Reagents Brightfield Kit on the Ventana DISCOVERY Ultra autostainer; clinical prostate tumor specimens (57 cases), CRPC specimens; anti-TRAP220/MED1 (phospho T1457) and anti-AR (441); 1 h ligation, 2 h amplification. To be noted: remark: other sources report otherwise.

Experiment [2] has as its target phosphorylated mediator complex subunit 1 (pMED1, at T1457), endogenous in LNCaP cells (human (endogenous in LNCaP)), Q15648. Kind of experiment: proximity ligation; Duolink PLA kit; LNCaP cells transfected with AR-mEGFP, 5% CSS for 2 days, then 1 nM DHT for 2 h; with or without 4% 1,6-hexanediol for 5 min before fixing (signal significantly reduced by 1,6-HD); confocal microscopy. To be noted: remark: other sources report otherwise.

No constants are given. Whether binding was seen depends on the method and setting. In cells and extracts the contact can be indirect. Some binding calls cover weakened binding; strength is not graded here. For some assays here: Tags and fused reporters may be left off the sequences shown.

Consider two molecules from paper PMC9841400.

B1: androgen receptor (AR), endogenous in clinical prostate specimens, P10275 1-920 (protein)
chain: MEVQLGLGRVYPRPPSKTYRGAFQNLFQSVREVIQNPGPRHPEAASAAPPGASLLLLQQQQQQQQQQQQQQQQQQQQQQQETSPRQQQQQQGEDGSPQAHRRGPTGYLVLDEEQQPSQPQSALECHPERGCVPEPGAAVAASKGLPQQLPAPPDEDDSAAPSTLSLLGPTFPGLSSCSADLKDILSEASTMQLLQQQQQEAVSEGSSSGRAREASGAPTSSKDNYLGGTSTISDNAKELCKAVSVSMGLGVEALEHLSPGEQLRGDCMYAPLLGVPPAVRPTPCAPLAECKGSLLDDSAGKSTEDTAEYSPFKGGYTKGLEGESLGCSGSAAAGSSGTLELPSTLSLYKSGALDEAAAYQSRDYYNFPLALAGPPPPPPPPHPHARIKLENPLDYGSAWAAAAAQCRYGDLASLHGAGAAGPGSGSPSAAASSSWHTLFTAEEGQLYGPCGGGGGGGGGGGGGGGGGGGGGGGEAGAVAPYGYTRPPQGLAGQESDFTAPDVWYPGGMVSRVPYPSPTCVKSEMGPWMDSYSGPYGDMRLETARDHVLPIDYYFPPQKTCLICGDEASGCHYGALTCGSCKVFFKRAAEGKQKYLCASRNDCTIDKFRRKNCPSCRLRKCYEAGMTLGARKLKKLGNLKLQEEGEASSTTSPTEETTQKLTVSHIEGYECQPIFLNVLEAIEPGVVCAGHDNNQPDSFAALLSSLNELGERQLVHVVKWAKALPGFRNLHVDDQMAVIQYSWMGLMVFAMGWRSFTNVNSRMLYFAPDLVFNEYRMHKSRMYSQCVRMRHLSQEFGWLQITPQEFLCMKALLLFSIIPVDGLKNQKFFDELRMNYIKELDRIIACKRKNPTSCSRRFYQLTKLLDSVQPIARELHQFTFDLLIKSHMVSVDFPEMMAEIISVQVPKILSGKVKPIYFHTQ
modifications: here or on the partner: phosphothreonine at T1457
With B1, the binding result in experiment [1] is given as “binds”.

B2: full-length androgen receptor tagged with non-dimerizing mEGFP (AR-mEGFP), in LNCaP cells, P10275 1-920 (protein)
chain: B1 chain
modifications: here or on the partner: phosphothreonine at T1457
For B2, the binding result in experiment [2] was “binds”.
